Laboratory results as given in the supplement of paper PMC12819154, “High-throughput peptide-centric local stability assay extends protein–ligand identification to membrane proteins, tissues and bacteria” (Nature Structural & Molecular Biology, 2025).
Some of the results follow. Most entries show no effect beyond the scatter of the controls.

Amino acid sequences for entries named in this document (tags omitted). A change or cut given only in a name is not applied to a line headed by its entry.
UniProt Q86U70: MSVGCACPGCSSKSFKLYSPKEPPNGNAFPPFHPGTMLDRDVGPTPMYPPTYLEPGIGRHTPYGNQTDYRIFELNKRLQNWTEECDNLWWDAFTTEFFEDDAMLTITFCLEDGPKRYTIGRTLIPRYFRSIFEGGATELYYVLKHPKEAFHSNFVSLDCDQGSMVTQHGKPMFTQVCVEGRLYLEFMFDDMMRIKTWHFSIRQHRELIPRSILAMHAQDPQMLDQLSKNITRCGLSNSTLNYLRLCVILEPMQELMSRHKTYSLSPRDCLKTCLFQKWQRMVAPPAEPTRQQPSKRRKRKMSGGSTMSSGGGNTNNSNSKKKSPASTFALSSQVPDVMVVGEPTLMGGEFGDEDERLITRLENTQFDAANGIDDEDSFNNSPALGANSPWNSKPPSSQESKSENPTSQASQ
UniProt Q86SQ9: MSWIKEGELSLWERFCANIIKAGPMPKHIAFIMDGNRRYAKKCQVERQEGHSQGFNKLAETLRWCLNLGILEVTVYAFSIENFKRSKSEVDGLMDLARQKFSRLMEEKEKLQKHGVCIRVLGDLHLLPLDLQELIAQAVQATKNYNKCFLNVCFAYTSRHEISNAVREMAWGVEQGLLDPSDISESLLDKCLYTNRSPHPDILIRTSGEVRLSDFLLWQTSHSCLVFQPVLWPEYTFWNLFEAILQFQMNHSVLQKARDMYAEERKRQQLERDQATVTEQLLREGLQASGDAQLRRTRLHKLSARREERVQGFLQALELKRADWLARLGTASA
UniProt Q7Z6E9: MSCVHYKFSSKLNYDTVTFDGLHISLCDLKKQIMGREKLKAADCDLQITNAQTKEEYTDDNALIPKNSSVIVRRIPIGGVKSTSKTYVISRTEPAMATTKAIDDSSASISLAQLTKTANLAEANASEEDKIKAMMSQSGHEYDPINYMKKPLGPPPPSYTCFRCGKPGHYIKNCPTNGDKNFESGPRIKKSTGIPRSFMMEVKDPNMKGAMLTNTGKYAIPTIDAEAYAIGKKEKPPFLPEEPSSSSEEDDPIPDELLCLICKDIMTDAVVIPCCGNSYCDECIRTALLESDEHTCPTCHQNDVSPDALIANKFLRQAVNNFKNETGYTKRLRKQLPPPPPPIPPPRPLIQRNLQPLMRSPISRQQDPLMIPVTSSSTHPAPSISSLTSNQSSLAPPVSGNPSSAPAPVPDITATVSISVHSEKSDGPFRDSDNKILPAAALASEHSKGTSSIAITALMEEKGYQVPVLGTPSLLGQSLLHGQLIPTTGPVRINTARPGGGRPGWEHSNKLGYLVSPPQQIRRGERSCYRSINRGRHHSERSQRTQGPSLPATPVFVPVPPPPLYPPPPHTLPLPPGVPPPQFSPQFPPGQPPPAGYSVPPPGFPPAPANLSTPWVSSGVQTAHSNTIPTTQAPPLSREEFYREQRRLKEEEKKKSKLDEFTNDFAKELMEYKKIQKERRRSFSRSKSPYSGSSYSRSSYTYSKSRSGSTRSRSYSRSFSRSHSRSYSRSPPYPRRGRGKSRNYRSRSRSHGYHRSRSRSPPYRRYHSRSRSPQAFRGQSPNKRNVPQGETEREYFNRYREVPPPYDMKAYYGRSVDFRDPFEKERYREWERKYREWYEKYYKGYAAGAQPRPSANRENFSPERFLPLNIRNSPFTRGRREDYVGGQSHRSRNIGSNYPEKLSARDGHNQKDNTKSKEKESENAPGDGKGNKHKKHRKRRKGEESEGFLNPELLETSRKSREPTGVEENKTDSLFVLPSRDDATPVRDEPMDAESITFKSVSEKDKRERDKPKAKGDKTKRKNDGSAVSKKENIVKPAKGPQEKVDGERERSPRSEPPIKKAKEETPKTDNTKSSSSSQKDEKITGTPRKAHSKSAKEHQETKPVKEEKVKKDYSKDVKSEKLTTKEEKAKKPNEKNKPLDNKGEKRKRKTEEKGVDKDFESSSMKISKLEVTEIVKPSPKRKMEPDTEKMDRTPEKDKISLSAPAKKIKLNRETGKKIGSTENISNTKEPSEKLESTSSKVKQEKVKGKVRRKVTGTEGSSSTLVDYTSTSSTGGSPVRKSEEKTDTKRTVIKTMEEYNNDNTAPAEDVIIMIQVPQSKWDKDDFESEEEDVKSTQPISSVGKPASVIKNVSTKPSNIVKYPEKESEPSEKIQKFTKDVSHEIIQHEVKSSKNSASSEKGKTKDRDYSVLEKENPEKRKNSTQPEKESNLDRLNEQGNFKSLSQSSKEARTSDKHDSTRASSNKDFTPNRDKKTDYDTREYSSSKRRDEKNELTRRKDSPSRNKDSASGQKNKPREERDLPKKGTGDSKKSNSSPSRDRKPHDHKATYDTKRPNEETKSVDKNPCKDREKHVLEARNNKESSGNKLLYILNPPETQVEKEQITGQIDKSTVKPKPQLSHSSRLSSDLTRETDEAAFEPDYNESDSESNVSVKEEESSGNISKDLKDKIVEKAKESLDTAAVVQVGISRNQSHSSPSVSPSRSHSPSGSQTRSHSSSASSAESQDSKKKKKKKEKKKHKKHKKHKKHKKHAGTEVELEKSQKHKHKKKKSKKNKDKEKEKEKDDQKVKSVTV
UniProt Q70EK9: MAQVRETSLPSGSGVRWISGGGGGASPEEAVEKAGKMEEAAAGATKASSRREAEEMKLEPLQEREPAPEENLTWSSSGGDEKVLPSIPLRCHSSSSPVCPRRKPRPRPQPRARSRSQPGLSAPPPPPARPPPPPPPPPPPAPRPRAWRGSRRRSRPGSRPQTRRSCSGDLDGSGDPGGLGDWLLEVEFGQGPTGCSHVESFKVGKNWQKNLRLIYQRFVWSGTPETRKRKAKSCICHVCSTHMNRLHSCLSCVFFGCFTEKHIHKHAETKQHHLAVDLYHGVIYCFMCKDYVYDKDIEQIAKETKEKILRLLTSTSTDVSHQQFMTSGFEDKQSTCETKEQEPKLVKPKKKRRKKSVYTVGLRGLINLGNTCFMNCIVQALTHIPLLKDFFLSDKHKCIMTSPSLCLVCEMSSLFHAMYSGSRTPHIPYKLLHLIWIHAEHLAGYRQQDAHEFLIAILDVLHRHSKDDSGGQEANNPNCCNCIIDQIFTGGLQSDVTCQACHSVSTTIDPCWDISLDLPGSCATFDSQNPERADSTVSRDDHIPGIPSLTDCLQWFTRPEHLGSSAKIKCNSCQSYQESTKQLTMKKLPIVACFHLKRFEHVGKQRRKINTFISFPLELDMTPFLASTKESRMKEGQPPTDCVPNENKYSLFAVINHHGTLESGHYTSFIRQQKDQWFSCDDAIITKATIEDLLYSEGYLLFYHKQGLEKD
UniProt Q86UA6: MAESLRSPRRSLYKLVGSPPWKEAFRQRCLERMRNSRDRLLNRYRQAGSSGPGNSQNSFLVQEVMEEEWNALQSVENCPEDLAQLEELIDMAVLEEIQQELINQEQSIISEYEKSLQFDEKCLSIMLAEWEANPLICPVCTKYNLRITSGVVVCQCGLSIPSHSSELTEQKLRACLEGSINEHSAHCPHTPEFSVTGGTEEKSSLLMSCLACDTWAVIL
UniProt Q86VP3, whole entry: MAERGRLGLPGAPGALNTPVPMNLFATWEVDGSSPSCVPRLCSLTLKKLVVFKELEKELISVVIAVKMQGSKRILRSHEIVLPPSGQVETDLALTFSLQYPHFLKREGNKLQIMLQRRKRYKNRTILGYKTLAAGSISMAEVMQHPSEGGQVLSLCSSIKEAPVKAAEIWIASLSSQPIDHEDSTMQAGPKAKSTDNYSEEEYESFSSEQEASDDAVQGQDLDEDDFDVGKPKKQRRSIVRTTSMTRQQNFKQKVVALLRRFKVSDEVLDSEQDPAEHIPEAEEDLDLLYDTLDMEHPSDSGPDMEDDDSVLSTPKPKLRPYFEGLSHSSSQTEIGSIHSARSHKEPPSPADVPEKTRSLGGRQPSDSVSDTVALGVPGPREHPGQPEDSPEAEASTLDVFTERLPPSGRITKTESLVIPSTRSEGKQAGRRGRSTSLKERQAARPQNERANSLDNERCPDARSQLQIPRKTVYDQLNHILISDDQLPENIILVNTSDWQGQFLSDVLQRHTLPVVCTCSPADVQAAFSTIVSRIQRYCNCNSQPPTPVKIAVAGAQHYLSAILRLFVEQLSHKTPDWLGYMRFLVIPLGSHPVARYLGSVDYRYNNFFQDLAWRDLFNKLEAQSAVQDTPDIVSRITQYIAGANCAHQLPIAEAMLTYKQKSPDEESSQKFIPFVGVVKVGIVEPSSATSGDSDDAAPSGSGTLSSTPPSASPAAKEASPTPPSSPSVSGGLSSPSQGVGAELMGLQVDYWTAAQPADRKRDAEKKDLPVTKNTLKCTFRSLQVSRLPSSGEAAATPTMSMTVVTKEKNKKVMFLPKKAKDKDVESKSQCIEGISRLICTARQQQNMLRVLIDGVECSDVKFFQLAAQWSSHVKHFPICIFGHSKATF
UniProt Q7Z434: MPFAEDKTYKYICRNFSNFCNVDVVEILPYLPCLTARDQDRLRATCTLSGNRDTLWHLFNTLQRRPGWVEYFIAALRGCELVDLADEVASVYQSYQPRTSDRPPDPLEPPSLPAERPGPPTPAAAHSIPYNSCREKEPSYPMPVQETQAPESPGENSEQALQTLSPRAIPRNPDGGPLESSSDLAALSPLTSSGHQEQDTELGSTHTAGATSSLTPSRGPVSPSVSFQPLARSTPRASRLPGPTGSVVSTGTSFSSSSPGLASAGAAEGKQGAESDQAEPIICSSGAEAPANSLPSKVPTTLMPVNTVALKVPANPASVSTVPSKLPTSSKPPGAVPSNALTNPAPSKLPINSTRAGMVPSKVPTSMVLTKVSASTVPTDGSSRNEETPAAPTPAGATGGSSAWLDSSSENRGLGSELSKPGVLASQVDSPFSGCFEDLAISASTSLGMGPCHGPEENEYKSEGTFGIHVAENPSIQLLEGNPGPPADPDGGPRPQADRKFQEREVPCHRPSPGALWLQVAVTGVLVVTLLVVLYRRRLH
UniProt Q6ZNA4: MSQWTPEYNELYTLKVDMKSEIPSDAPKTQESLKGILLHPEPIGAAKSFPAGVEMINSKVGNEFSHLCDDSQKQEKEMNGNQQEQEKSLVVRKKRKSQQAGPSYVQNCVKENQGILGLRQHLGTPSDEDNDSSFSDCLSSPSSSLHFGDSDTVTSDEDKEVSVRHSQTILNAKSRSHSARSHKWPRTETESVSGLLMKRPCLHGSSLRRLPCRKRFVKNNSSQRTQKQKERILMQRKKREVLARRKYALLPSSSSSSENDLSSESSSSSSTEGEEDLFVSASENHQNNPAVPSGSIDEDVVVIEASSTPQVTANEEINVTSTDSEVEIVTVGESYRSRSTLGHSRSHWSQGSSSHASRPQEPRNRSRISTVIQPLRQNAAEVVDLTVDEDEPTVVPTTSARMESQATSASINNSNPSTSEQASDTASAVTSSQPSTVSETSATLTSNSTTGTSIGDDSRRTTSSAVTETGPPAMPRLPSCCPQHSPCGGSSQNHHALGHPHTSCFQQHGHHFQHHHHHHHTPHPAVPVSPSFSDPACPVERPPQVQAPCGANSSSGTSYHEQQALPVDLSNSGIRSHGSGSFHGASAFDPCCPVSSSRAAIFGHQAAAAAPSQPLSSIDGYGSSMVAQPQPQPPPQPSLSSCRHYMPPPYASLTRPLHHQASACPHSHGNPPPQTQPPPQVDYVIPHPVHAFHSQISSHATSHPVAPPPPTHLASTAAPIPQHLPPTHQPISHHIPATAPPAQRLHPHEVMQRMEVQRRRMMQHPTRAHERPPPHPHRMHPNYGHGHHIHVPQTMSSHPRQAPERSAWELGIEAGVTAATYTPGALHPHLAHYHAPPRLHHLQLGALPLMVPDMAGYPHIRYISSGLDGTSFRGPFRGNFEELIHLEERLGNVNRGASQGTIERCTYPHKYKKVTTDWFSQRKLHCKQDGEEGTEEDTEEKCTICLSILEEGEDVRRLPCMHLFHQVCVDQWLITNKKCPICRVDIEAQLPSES
UniProt Q7Z628: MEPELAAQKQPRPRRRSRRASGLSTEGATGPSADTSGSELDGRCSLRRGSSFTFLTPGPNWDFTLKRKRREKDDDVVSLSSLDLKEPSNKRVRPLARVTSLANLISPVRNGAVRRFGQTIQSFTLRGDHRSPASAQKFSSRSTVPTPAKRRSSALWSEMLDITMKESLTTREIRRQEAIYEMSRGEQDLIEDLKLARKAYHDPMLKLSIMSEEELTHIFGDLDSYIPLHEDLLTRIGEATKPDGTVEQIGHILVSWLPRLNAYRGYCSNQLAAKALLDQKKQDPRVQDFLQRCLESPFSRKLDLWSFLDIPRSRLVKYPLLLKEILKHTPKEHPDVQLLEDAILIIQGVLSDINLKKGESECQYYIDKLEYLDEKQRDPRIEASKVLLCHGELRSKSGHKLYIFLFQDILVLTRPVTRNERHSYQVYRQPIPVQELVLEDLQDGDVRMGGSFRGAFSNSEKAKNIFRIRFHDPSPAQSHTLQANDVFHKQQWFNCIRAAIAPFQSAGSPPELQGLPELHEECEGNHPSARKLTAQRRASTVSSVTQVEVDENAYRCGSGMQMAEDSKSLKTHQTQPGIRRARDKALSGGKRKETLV

compound: CN[C@@H]1C[C@H]2O[C@@](C)([C@@H]1OC)n1c3ccccc3c3c4c(c5c6ccccc6n2c5c31)C(=O)NC4 [staurosporine]; test: log2 fold change of tryptic peptide abundance, ligand vs vehicle (limited proteolysis) (log2 ratio); higher = more trypsin-susceptible (destabilized); details: ligand concentration: 20 uM; sample: K562 cleared lysate; digestion: 4 min, 22 C (HT-PELSA RT4min, Orbitrap Astral)

**Q.** Which log2 fold change does the source give for “UniProt Q86UF2 (peptide sequence: GPGNPLDHQITNER, peptide start residue: 1169)” here?
**A.** -0.122

**Q.** For “UniProt Q86V81 (peptide sequence: SLGTADVHFERK, peptide start residue: 145)”, which log2 fold change is on record?
**A.** 0.298

**Q.** “LDB1 (peptide sequence: KMSGGSTMSSGGGNTNNSNSK, peptide start residue: 300) (UniProt Q86U70)” was tested. Which log2 fold change did it give?
**A.** 0.901

**Q.** For “DHDDS (peptide sequence: DQATVTEQLLR, peptide start residue: 273) (UniProt Q86SQ9)”, which log2 fold change is on record?
**A.** 0.317

**Q.** With “SH3BP5L (peptide sequence: GLSDHVSLDGQELGTR, peptide start residue: 356) (UniProt Q7L8J4)” as the target, how does the log2 fold change read?
**A.** -0.734

**Q.** With “IRF2BP2 (peptide sequence: DANQVHSTTRR, peptide start residue: 443) (UniProt Q7Z5L9)” as the target, how does the log2 fold change read?
**A.** 0.44

**Q.** How did the log2 fold change turn out when “UniProt Q6ZNW5 (peptide sequence: AGIEAVLLSLHPGFR, peptide start residue: 188)” was run?
**A.** 0.188

**Q.** With “UniProt Q7Z7A3 (peptide sequence: RLEAARPSAVLDLVHSAER, peptide start residue: 254)” as the target, how does the log2 fold change read?
**A.** 0.217

**Q.** Which log2 fold change does the source give for “UniProt Q7Z2Z2 (peptide sequence: AVLPVAESFGFADEIRK, peptide start residue: 1026)” here?
**A.** -0.23

**Q.** For “RBBP6 (peptide sequence: KTDYDTR, peptide start residue: 1474) (UniProt Q7Z6E9)”, which log2 fold change is on record?
**A.** -0.849

**Q.** How did the log2 fold change turn out when “UniProt Q6ZN08 (peptide sequence: SSNLTTHK, peptide start residue: 278)” was run?
**A.** 0.515

**Q.** Which log2 fold change does the source give for “SGMS1 (peptide sequence: IKPNGMPNGYRK, peptide start residue: 102) (UniProt Q86VZ5)” here?
**A.** 0.107

**Q.** With “TAF8 (peptide sequence: MVITAPPVTNQPVTPK, peptide start residue: 117) (UniProt Q7Z7C8)” as the target, how does the log2 fold change read?
**A.** -0.183

**Q.** How did the log2 fold change turn out when “PIK3AP1 (peptide sequence: LGIVNVDEAVLHFK, peptide start residue: 617) (UniProt Q6ZUJ8)” was run?
**A.** -0.464

**Q.** For “SDCCAG8 (peptide sequence: LTYEEKCEIEESQLK, peptide start residue: 230) (UniProt Q86SQ7)”, which log2 fold change is on record?
**A.** -0.438

**Q.** For “UniProt Q70EK9 (peptide sequence: KLPIVACFHLK, peptide start residue: 400)”, which log2 fold change is on record?
**A.** 0.146

**Q.** How did the log2 fold change turn out when “UniProt Q7Z4V5 (peptide sequence: REQEEELRR, peptide start residue: 333)” was run?
**A.** 0.694

**Q.** “ZFYVE16 (peptide sequence: SLDLKDNDVIQDSSSALHVSSK, peptide start residue: 348) (UniProt Q7Z3T8)” was tested. Which log2 fold change did it give?
**A.** -0.368

**Q.** For “CEFIP (peptide sequence: ATPVIKPIMLPLLR, peptide start residue: 864) (UniProt Q711Q0)”, which log2 fold change is on record?
**A.** 0.287

**Q.** How did the log2 fold change turn out when “PTAR1 (peptide sequence: ELILSGTLNPIKDLHLGK, peptide start residue: 110) (UniProt Q7Z6K3)” was run?
**A.** -0.534

**Q.** “UniProt Q86UX2 (peptide sequence: SVSLIVFLTDGKPTVGETHTLK, peptide start residue: 397)” was tested. Which log2 fold change did it give?
**A.** -0.608

**Q.** How did the log2 fold change turn out when “FAM83A (peptide sequence: FQPHQGPWGAPSPQAHLSPR, peptide start residue: 369) (UniProt Q86UY5)” was run?
**A.** 0.671

**Q.** Which log2 fold change does the source give for “UniProt Q7Z4H7 (peptide sequence: HVLTSHIDEPPTQNQSDLLNKK, peptide start residue: 669)” here?
**A.** 0.28

**Q.** Which log2 fold change does the source give for “RPAIN (peptide sequence: LVGSPPWK, peptide start residue: 15) (UniProt Q86UA6)” here?
**A.** -0.0938

**Q.** How did the log2 fold change turn out when “NBEAL2 (peptide sequence: SHVLVGLEDGK, peptide start residue: 2700) (UniProt Q6ZNJ1)” was run?
**A.** 0.535

**Q.** Which log2 fold change does the source give for “UniProt Q6ZMW3 (peptide sequence: IWDLADK, peptide start residue: 1713)” here?
**A.** 0.0344

**Q.** For “UniProt Q70Z53 (peptide sequence: GQFFCGNKYCDK, peptide start residue: 171)”, which log2 fold change is on record?
**A.** -0.69

**Q.** How did the log2 fold change turn out when “CNTRL (peptide sequence: QTEGTLHSLRR, peptide start residue: 2269) (UniProt Q7Z7A1)” was run?
**A.** 0.569

**Q.** For “PACS2 (peptide sequence: IAVAGAQHYLSAILR, peptide start residue: 551) (UniProt Q86VP3)”, which log2 fold change is on record?
**A.** -0.234

**Q.** How did the log2 fold change turn out when “RTL10 (peptide sequence: STASGTCGGKPAER, peptide start residue: 66) (UniProt Q7L3V2)” was run?
**A.** -0.398

**Q.** “MYH14 (peptide sequence: QLLQANPILEAFGNAK, peptide start residue: 210) (UniProt Q7Z406)” was tested. Which log2 fold change did it give?
**A.** 0.414

**Q.** For “SMG6 (peptide sequence: GNVAKEEVANKPDR, peptide start residue: 184) (UniProt Q86US8)”, which log2 fold change is on record?
**A.** 0.47

**Q.** Which log2 fold change does the source give for “EPM2AIP1 (peptide sequence: MEVDEALVFRPEWTQR, peptide start residue: 10) (UniProt Q7L775)” here?
**A.** 0.379

**Q.** “SETD3 (peptide sequence: NLEEEAGVQDALNIR, peptide start residue: 525) (UniProt Q86TU7)” was tested. Which log2 fold change did it give?
**A.** -0.201

**Q.** How did the log2 fold change turn out when “UniProt Q7Z434 (peptide sequence: VPTSMVLTK, peptide start residue: 363)” was run?
**A.** 0.287

**Q.** With “RNF111 (peptide sequence: ENQGILGLR, peptide start residue: 111) (UniProt Q6ZNA4)” as the target, how does the log2 fold change read?
**A.** 0.389

**Q.** For “NET1 (peptide sequence: VTSLANLISPVR, peptide start residue: 98) (UniProt Q7Z628)”, which log2 fold change is on record?
**A.** 0.416
